Values from PubChem BioAssay AID1508588 (Peter MacCallum Cancer Centre, 2020).
The deposit covers about 18,000 reagents; shown is a part drawn at random. 790 of all reagents (4.4%) count as active. 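Calls rest on a combination of fold-change classes in drug and vehicle arms, not all shown here.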 The numbers tell different reagents against one gene apart.

Purpose: 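Knock-downs boosting vemurafenib effects on melanoma cell growth or lactate release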 (primary screen)
Cells: human WM266.4 melanoma cells (BRAF V600 mutant)
Reagent: siRNA pool against human genes, 40 nM
Timing: 96 h from transfection to read-out
Conditions: vemurafenib 300 nM (about IC25), added 48 h after transfection, for 48 h; comparison arm got DMSO vehicle only
Detection: 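Ratios to non-targeting siRNA for cell gain, counted as DAPI nuclei after minus before drug and averaged over two replicates, and for absorbance-read medium lactate per cell; both binned into fold-change classes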
Direction: cell gain with vemurafenib: higher = more cell gain than with non-targeting siRNA; lactate per cell with vemurafenib: higher = more lactate made per cell
Hit rule: 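a knock-down counts as enhancing when its fold-change classes with vehicle and with vemurafenib, taken together, show a stronger drug effect on cell gain or lactate per cell; exact class pairs not stated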
Meaning of the calls: active = enhances vemurafenib effect; inactive = no enhancement seen

Which result is listed for AKR1E2?
cell gain with vemurafenib: 0.46; lactate per cell with vemurafenib: 0.95; activity call: inactive

What is on record for BCCIP?
cell gain with vemurafenib: 0.41; lactate per cell with vemurafenib: 0.46; activity call: active

Which result is listed for PHYHIPL?
cell gain with vemurafenib: 1.15; lactate per cell with vemurafenib: 1.34; activity call: inactive

How did the screen score VPS41?
cell gain with vemurafenib: 1.03; lactate per cell with vemurafenib: 0.52; activity call: inactive

How did the screen score FAM171B?
cell gain with vemurafenib: 0.99; lactate per cell with vemurafenib: 0.66; activity call: inactive

How did the screen score GCM1?
cell gain with vemurafenib: 0.96; lactate per cell with vemurafenib: 1.06; activity call: inactive

With VWCE, what was measured?
cell gain with vemurafenib: 0.89; lactate per cell with vemurafenib: 1.06; activity call: inactive

For CST7, what was measured?
cell gain with vemurafenib: 0.1; lactate per cell with vemurafenib: 1.25; activity call: inactive

With HEMGN, how do the results read?
cell gain with vemurafenib: 0.52; lactate per cell with vemurafenib: 1.39; activity call: inactive

Which result is listed for WDR46?
cell gain with vemurafenib: 0.45; lactate per cell with vemurafenib: 1.13; activity call: inactive

How did the screen score SELENOV?
cell gain with vemurafenib: 0.23; lactate per cell with vemurafenib: 1; activity call: inactive

What did the screen give for CELF1?
cell gain with vemurafenib: 0.9; lactate per cell with vemurafenib: 1.27; activity call: inactive

For PLEKHG2, how do the results read?
cell gain with vemurafenib: 0.85; lactate per cell with vemurafenib: 0.9; activity call: inactive

With ERP29, what was measured?
cell gain with vemurafenib: 0.27; lactate per cell with vemurafenib: 0.93; activity call: inactive

With CHRNA6, what does the deposit list?
cell gain with vemurafenib: 0.79; lactate per cell with vemurafenib: 1.52; activity call: inactive

What did the screen give for SLC35C1?
cell gain with vemurafenib: 0.65; lactate per cell with vemurafenib: 0.8; activity call: inactive

For MGMT, what was measured?
cell gain with vemurafenib: 0.93; lactate per cell with vemurafenib: 0.64; activity call: inactive

For CHCT1, how do the results read?
cell gain with vemurafenib: 0.78; lactate per cell with vemurafenib: 0.76; activity call: inactive

What did the screen give for OR2Z1?
cell gain with vemurafenib: 0.12; lactate per cell with vemurafenib: 3.07; activity call: inactive

For CDC34, what does the deposit list?
cell gain with vemurafenib: 0.38; lactate per cell with vemurafenib: 0.62; activity call: inactive

How did the screen score ZNF354C?
cell gain with vemurafenib: 0.84; lactate per cell with vemurafenib: 1.03; activity call: inactive

With HEXB, how do the results read?
cell gain with vemurafenib: 0.72; lactate per cell with vemurafenib: 1.31; activity call: inactive

With ZNF366, how do the results read?
cell gain with vemurafenib: 0.82; lactate per cell with vemurafenib: 0.7; activity call: inactive

For SIRPB1, how do the results read?
cell gain with vemurafenib: 0.53; lactate per cell with vemurafenib: 0.77; activity call: inactive

What is on record for YARS1?
cell gain with vemurafenib: 0.64; lactate per cell with vemurafenib: 0.48; activity call: inactive

For EIF2B1, how do the results read?
cell gain with vemurafenib: 0.41; lactate per cell with vemurafenib: 0.2; activity call: inactive

With EEF1AKMT2, what was measured?
cell gain with vemurafenib: 0.66; lactate per cell with vemurafenib: 0.64; activity call: inactive

Which result is listed for MPZL3?
cell gain with vemurafenib: 0.61; lactate per cell with vemurafenib: 1.4; activity call: inactive

What is on record for VENTX?
cell gain with vemurafenib: 0.89; lactate per cell with vemurafenib: 1.05; activity call: inactive

With SLIT1, what does the deposit list?
cell gain with vemurafenib: 0.62; lactate per cell with vemurafenib: 1.21; activity call: inactive

In a second layout: entries from further up.
{"Gene": "CELF1", "reagent no.": 1, "cell gain with vemurafenib": 0.9, "lactate per cell with vemurafenib": 1.27, "activity call": "inactive"}
{"Gene": "PLEKHG2", "reagent no.": 1, "cell gain with vemurafenib": 0.85, "lactate per cell with vemurafenib": 0.9, "activity call": "inactive"}
{"Gene": "ERP29", "reagent no.": 1, "cell gain with vemurafenib": 0.27, "lactate per cell with vemurafenib": 0.93, "activity call": "inactive"}
{"Gene": "CHRNA6", "reagent no.": 1, "cell gain with vemurafenib": 0.79, "lactate per cell with vemurafenib": 1.52, "activity call": "inactive"}
{"Gene": "SLC35C1", "reagent no.": 1, "cell gain with vemurafenib": 0.65, "lactate per cell with vemurafenib": 0.8, "activity call": "inactive"}
{"Gene": "MGMT", "reagent no.": 1, "cell gain with vemurafenib": 0.93, "lactate per cell with vemurafenib": 0.64, "activity call": "inactive"}
{"Gene": "CHCT1", "reagent no.": 1, "cell gain with vemurafenib": 0.78, "lactate per cell with vemurafenib": 0.76, "activity call": "inactive"}
{"Gene": "OR2Z1", "reagent no.": 1, "cell gain with vemurafenib": 0.12, "lactate per cell with vemurafenib": 3.07, "activity call": "inactive"}

The results go on:
What is on record for CCNP?
cell gain with vemurafenib: 0.88; lactate per cell with vemurafenib: 0.82; activity call: inactive

For FAIM, what was measured?
cell gain with vemurafenib: 0.85; lactate per cell with vemurafenib: 0.66; activity call: inactive

What is on record for USP53?
cell gain with vemurafenib: 0.48; lactate per cell with vemurafenib: 0.66; activity call: inactive

For C4B, how do the results read?
cell gain with vemurafenib: 0.34; lactate per cell with vemurafenib: 1.45; activity call: inactive

What is on record for SYP?
cell gain with vemurafenib: 0.77; lactate per cell with vemurafenib: 0.76; activity call: inactive

With CES3, what does the deposit list?
cell gain with vemurafenib: 0.47; lactate per cell with vemurafenib: 0.77; activity call: inactive

For CDX1, how do the results read?
cell gain with vemurafenib: 0.63; lactate per cell with vemurafenib: 1.43; activity call: inactive

What is on record for GJB3?
cell gain with vemurafenib: 0.42; lactate per cell with vemurafenib: 2.18; activity call: inactive

For ZBTB18, what was measured?
cell gain with vemurafenib: 1.22; lactate per cell with vemurafenib: 0.66; activity call: inactive

For NEU2, what was measured?
cell gain with vemurafenib: 0.6; lactate per cell with vemurafenib: 0.48; activity call: inactive

How did the screen score ARSF?
cell gain with vemurafenib: 0.64; lactate per cell with vemurafenib: 0.82; activity call: inactive

Which result is listed for IFT57?
cell gain with vemurafenib: 0.48; lactate per cell with vemurafenib: 1.25; activity call: inactive

What is on record for CREB3L4?
cell gain with vemurafenib: 0.45; lactate per cell with vemurafenib: 1.15; activity call: inactive

For RRH, what was measured?
cell gain with vemurafenib: 0.7; lactate per cell with vemurafenib: 0.58; activity call: inactive

For OR4D10, what does the deposit list?
cell gain with vemurafenib: 0.64; lactate per cell with vemurafenib: 1.04; activity call: inactive

With SNX29 #1, what was measured?
cell gain with vemurafenib: 0.66; lactate per cell with vemurafenib: 1.06; activity call: inactive

What is on record for SNX29 #2?
cell gain with vemurafenib: 0.85; lactate per cell with vemurafenib: 1.18; activity call: inactive

How did the screen score ZBTB14?
cell gain with vemurafenib: 0.92; lactate per cell with vemurafenib: 0.84; activity call: inactive

What is on record for ZNF646?
cell gain with vemurafenib: 0.28; lactate per cell with vemurafenib: 2.34; activity call: inactive

With HEXIM1, what was measured?
cell gain with vemurafenib: 0.59; lactate per cell with vemurafenib: 0.98; activity call: inactive

How did the screen score LARP1B?
cell gain with vemurafenib: 0.98; lactate per cell with vemurafenib: 0.92; activity call: inactive

For ZNF324B, what does the deposit list?
cell gain with vemurafenib: 0.39; lactate per cell with vemurafenib: 0.75; activity call: inactive
